PubChem BioAssay AID1224830 | NIAID – 2016
Here is an unselected part of about 18,000 reagents tested. Over the whole deposit, about 2,900 (16%) got an active call. 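Calls are made per well; low scores hint the gene aids the LPS response, high scores that it dampens it.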 Repeated entries: four replicate wells of each siRNA pool.

- Screen: 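Regulators of TLR4 signalling towards TNF-alpha in macrophage-like cells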 (primary screen)
- Cells: human THP-1 monocytic leukaemia cells, TNF dual-luciferase reporter clone, PMA-differentiated to macrophage-like cells
- Reagent: siRNA pool against human genes, 50 nM
- Duration: LPS for 4 h, given about 3 days after siRNA transfection
- Treatment: bacterial LPS (TLR4 ligand), 10 ng/ml
- Read-out: 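Ratio of firefly to renilla light, scaled to the plate median and expressed as a robust z-score per replicate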
- Scale: TNF reporter robust z-score: higher = stronger TNF reporter response to LPS
- Rule for the call: 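Each well counts as active if its z-score is over 2.8 or under -1.5; controls are left without a call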

no.	gene symbol	TNF reporter robust z-score	call
1	GSN	0.65	inactive
2	GSN	1.05	inactive
3	GSN	2.7	inactive
4	FKBP2	-0.34	inactive
5	FKBP2	-0.36	inactive
6	FKBP2	-0.42	inactive
7	FKBP2	-0.54	inactive
8	ART4	-0.15	inactive
9	ART4	1.47	inactive
10	ART4	-0.8	inactive
11	ART4	-0.64	inactive
12	MCM2	0.12	inactive
13	MCM2	-0.28	inactive
14	MCM2	0.13	inactive
15	MCM2	1.41	inactive
16	FGFR3	-1.17	inactive
17	FGFR3	-1.34	inactive
18	FGFR3	-1.49	inactive
19	FGFR3	-0.84	inactive
20	GPR4	-0.96	inactive
21	GPR4	-0.52	inactive
22	GPR4	-1.03	inactive
23	GPR4	0.8	inactive
24	ATF2	-0.63	inactive
25	ATF2	-0.6	inactive
26	ATF2	-0.48	inactive
27	ATF2	-0.57	inactive
28	WDR41	0.65	inactive
29	WDR41	1.04	inactive
30	WDR41	2.13	inactive
31	WDR41	2.06	inactive
32	GRHL2	0.76	inactive
33	GRHL2	2.79	inactive
34	GRHL2	1.87	inactive
35	GRHL2	1.76	inactive
36	DNAI2	-0.99	inactive
37	DNAI2	-0.85	inactive
38	DNAI2	-0.73	inactive
39	DNAI2	-0.79	inactive
40	NDUFC2	-1.13	inactive
41	NDUFC2	-0.98	inactive
42	NDUFC2	-0.96	inactive
43	NDUFC2	-0.62	inactive
44	GLRA1	-1.11	inactive
45	GLRA1	-0.04	inactive
46	GLRA1	0	inactive
47	GLRA1	-0.73	inactive
48	EIF4EBP1	-0.75	inactive
49	EIF4EBP1	-0.68	inactive
50	EIF4EBP1	-1.18	inactive
51	EIF4EBP1	-0.57	inactive
52	EVI2B	-0.68	inactive
53	EVI2B	-0.21	inactive
54	EVI2B	0.08	inactive
55	EVI2B	0.06	inactive
56	MVD	0.61	inactive
57	MVD	0.29	inactive
58	MVD	-0.2	inactive
59	MVD	0.33	inactive
60	IL25	1.1	inactive
61	IL25	0.96	inactive
62	IL25	-0.46	inactive
63	IL25	0.21	inactive
64	ZNF655	-1.61	active
65	ZNF655	-1.66	active
66	ZNF655	-1.52	active
67	ZNF655	-1.59	active
68	UNC5CL	-0.13	inactive
69	UNC5CL	-0.56	inactive
70	UNC5CL	-0.01	inactive
71	UNC5CL	-0.4	inactive
72	MED29	0.48	inactive
73	MED29	1.2	inactive
74	MED29	0.5	inactive
75	MED29	0.44	inactive
76	PEX39	-0.85	inactive
77	PEX39	-1.11	inactive
78	PEX39	-0.95	inactive
79	PEX39	-0.94	inactive
80	IFITM2	0.96	inactive
81	IFITM2	-0.2	inactive
82	IFITM2	0.45	inactive
83	IFITM2	1.36	inactive
84	NHEJ1	1.29	inactive
85	NHEJ1	0.54	inactive
86	NHEJ1	1.35	inactive
87	NHEJ1	1.79	inactive
88	NCOA7	-1.13	inactive
89	NCOA7	-1.29	inactive
90	NCOA7	-1.31	inactive
91	NCOA7	-0.94	inactive
92	SAA2	0.34	inactive
93	SAA2	0.63	inactive
94	SAA2	-0.78	inactive
95	SAA2	-1.15	inactive
96	BKGD	-0.49	inactive
97	BKGD	-0.47	inactive
98	BKGD	-0.99	inactive
99	BKGD	-0.38	inactive
100	BMP7	-1.92	active
101	BMP7	-1.35	inactive
102	BMP7	-1.81	active
103	BMP7	-1.57	active
104	MRFAP1	0.46	inactive
105	MRFAP1	0.37	inactive
106	MRFAP1	1.68	inactive
107	MRFAP1	1.13	inactive
108	ALG14	0.31	inactive
109	ALG14	-0.32	inactive
110	ALG14	-0.95	inactive
111	ALG14	-0.72	inactive
112	CCNT2	0.09	inactive
113	CCNT2	-0.74	inactive
114	CCNT2	-0.24	inactive
115	CCNT2	-0.41	inactive
116	TBC1D22B	1.79	inactive
117	TBC1D22B	3.59	active
118	TBC1D22B	2.36	inactive
119	TBC1D22B	0.88	inactive
120	HNRNPCL1	-0.85	inactive
121	HNRNPCL1	-1.19	inactive
122	HNRNPCL1	-1.18	inactive
123	HNRNPCL1	-0.49	inactive
124	ZIC4	-0.16	inactive
125	ZIC4	-0.2	inactive
126	ZIC4	1.31	inactive
127	ZIC4	-0.11	inactive
128	HGH1	0.88	inactive
129	HGH1	1.29	inactive
130	HGH1	0.16	inactive
131	HGH1	1.1	inactive
132	THOP1	-1.29	inactive
133	THOP1	-1.38	inactive
134	THOP1	-1.65	active
135	THOP1	-1	inactive
136	LURAP1	0.64	inactive
137	LURAP1	-0.45	inactive
138	LURAP1	-0.17	inactive
139	LURAP1	0.44	inactive
140	RBMY1B	0.56	inactive
141	RBMY1B	1.95	inactive
142	RBMY1B	0.45	inactive
143	RBMY1B	1.49	inactive

16 successive entries from above, for reference:
no.	gene symbol	TNF reporter robust z-score	call
24	ATF2	-0.63	inactive
25	ATF2	-0.6	inactive
26	ATF2	-0.48	inactive
27	ATF2	-0.57	inactive
28	WDR41	0.65	inactive
29	WDR41	1.04	inactive
30	WDR41	2.13	inactive
31	WDR41	2.06	inactive
32	GRHL2	0.76	inactive
33	GRHL2	2.79	inactive
34	GRHL2	1.87	inactive
35	GRHL2	1.76	inactive
36	DNAI2	-0.99	inactive
37	DNAI2	-0.85	inactive
38	DNAI2	-0.73	inactive
39	DNAI2	-0.79	inactive
